The target of one assay is T1, Spc97-3HA (S. cerevisiae, UniProt P38863 1-823).
T1 construct: Spc97, budding yeast; tagged with 3HA in the TUB4-AID strain; source: S. cerevisiae (TUB4-AID SPC97-3HA strain), in lysate
T1 sequence (looked up): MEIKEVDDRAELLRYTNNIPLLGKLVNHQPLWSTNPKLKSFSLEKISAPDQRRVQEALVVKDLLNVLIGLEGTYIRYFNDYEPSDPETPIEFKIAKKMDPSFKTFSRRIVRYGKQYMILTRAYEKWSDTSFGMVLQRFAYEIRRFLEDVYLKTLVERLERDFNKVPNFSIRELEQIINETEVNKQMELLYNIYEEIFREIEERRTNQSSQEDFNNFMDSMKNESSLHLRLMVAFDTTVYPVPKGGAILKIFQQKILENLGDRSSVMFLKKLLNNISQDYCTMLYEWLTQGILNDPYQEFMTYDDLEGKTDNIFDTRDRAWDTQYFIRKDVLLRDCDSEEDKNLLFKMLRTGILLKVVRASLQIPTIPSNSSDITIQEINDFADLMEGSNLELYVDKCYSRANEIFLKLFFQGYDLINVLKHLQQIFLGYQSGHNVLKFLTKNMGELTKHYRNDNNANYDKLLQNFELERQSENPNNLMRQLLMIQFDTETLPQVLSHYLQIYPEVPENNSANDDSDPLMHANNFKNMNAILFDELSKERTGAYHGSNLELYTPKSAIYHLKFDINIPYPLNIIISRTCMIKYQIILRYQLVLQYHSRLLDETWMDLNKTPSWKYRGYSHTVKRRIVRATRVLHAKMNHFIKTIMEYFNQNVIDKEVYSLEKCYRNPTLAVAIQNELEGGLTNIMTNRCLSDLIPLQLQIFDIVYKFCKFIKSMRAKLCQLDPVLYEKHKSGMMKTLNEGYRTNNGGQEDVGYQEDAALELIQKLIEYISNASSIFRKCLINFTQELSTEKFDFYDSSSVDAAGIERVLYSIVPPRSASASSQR
Briefly: co-IP; anti-HA immunoprecipitation of Spc97-3HA from lysates of TUB4-AID SPC97-3HA cells carrying pRS305 with TUB4, tub4-S74E, tub4-S100E or tub4-S360D, after 2 h of 0.5 mM IAA at 30°C to deplete Tub4-AID; blots with anti-Tub4, anti-Spc98, anti-Spc110 and anti-HA, normalised to precipitated Spc97-3HA.

Assay [1] concerns the target T2, Spc97 with five copies of the FLAG epitope (S. cerevisiae) (UniProt P38863).
T2 sequence: T1 sequence (looked up)
Briefly: co-IP; anti-FLAG immunoprecipitation of Spc97-5FLAG from lysates of SPC97-5FLAG TUB4-6HA cells carrying pRS305 with TUB4 alleles; Protein G Dynabeads, 4°C, 50 mM Tris-HCl pH 7.5, 150 mM NaCl, 0.1% Triton X-100; blots with anti-Spc98 and anti-Tub4.

Assay [2] has as its target T3, Tub4 with six copies of the hemagglutinin epitope HA (S. cerevisiae) (UniProt P53378).
T3 sequence: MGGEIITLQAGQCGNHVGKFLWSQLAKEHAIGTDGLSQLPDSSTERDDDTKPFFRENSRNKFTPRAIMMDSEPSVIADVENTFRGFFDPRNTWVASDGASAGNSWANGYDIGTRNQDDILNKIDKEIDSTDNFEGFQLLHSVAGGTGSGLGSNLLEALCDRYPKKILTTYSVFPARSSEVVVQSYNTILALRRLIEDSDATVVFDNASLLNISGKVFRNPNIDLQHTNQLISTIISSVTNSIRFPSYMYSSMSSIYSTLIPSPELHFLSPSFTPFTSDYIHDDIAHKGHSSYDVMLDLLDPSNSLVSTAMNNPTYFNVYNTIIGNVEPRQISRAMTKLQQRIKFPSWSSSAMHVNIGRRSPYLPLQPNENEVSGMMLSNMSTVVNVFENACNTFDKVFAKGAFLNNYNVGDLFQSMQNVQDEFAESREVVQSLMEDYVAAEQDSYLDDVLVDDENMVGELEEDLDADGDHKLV
In words: co-IP; anti-HA immunoprecipitation of Tub4-6HA from lysates of SPC97-5FLAG TUB4-6HA cells carrying pRS305 with TUB4 alleles; Protein G Dynabeads, 4°C, 50 mM Tris-HCl pH 7.5, 150 mM NaCl, 0.1% Triton X-100; blots with anti-Tub4 and anti-FLAG.

Changes are numbered by the printed parent chain. In names and notes the source's numbering stands. No constants are given. Whether binding was seen depends on the method and setting. Binding seen in cells or lysates may run through a third protein. Some results given as binding are weak or reduced against the parent protein; the word gives no strength. Sequences can lack the tags named with a protein.

B1: Tub4-S74E (natural protein, S. cerevisiae, UniProt P53378 1-473, looked up)
chain: T3 sequence with S74E
notes: Tub4, gamma-tubulin of budding yeast, phospho-mimicking mutant; source: S. cerevisiae, from integrated pRS305-tub4-S74E, in lysate
As for B1, the binding result (with Spc97-3HA; in assay [1]) was “binds” in each case.

B2: Tub4-S360A (protein, UniProt P53378 1-473)
chain: T3 sequence with S360A
With B2, the binding entry in assay [1] is listed as “binds”.

B3: Tub4-S100E (protein, UniProt P53378 1-473)
chain: T3 sequence with S100E
Consider B3, for which the binding entry (with Spc97-3HA; in assay [1]) was “binds” throughout.

B4: Tub4-S360D (protein, UniProt P53378 1-473)
chain: T3 sequence with S360D
Regarding B4, the binding result (with Spc97-3HA; in assay [1]) was “binds” each time.

B5: Tub4 (yeast gamma-tubulin), wild type, untagged (protein, UniProt P53378 1-473)
chain: T3 sequence
As for B5, the binding result in the assay with Spc97-3HA is recorded as “binds”.

B6: Tub4 with six copies of the hemagglutinin epitope HA (protein, UniProt P53378 1-473)
chain: T3 sequence
For the molecule B6, the binding entry in assay [1] is on record as “binds”.

B7: Spc98 (protein, UniProt P53540 1-846)
chain: MELEPTLFGIIEALAPQLLSQSHLQTFVSDVVNLLRSSTKSATQLGPLIDFYKLQSLDSPETTIMWHKIEKFLDALFGIQNTDDMVKYLSVFQSLLPSNYRAKIVQKSSGLNMENLANHEHLLSPVRAPSIYTEASFENMDRFSERRSMVSSPNRYVPSSTYSSVTLRQLSNPYYVNTIPEEDILKYVSYTLLATTSALFPFDHEQIQIPSKIPNFESGLLHLIFEAGLLYQSLGYKVEKFRMLNISPMKKALIIEISEELQNYTAFVNNLVSSGTVVSLKSLYREIYENIIRLRIYCRFTEHLEELSGDTFLIELNIFKSHGDLTIRKIATNLFNSMISLYYEYLMNWLTKGLLRATYGEFFIAENTDTNGTDDDFIYHIPIEFNQERVPAFIPKELAYKIFMIGKSYIFLEKYCKEVQWTNEFSKKYHVLYQSNSYRGISTNFFEIINDQYSEIVNHTNQILNQKFHYRDVVFALKNILLMGKSDFMDALIEKANDILATPSDSLPNYKLTRVLQEAVQLSSLRHLMNSPRNSSVINGLDARVLDLGHGSVGWDVFTLDYILYPPLSLVLNVNRPFGRKEYLRIFNFLWRFKKNNYFYQKEMLKSNDIIRSFKKIRGYNPLIRDIINKLSRISILRTQFQQFNSKMESYYLNCIIEENFKEMTRKLQRTENKSQNQFDLIRLNNGTIELNGILTPKAEVLTKSSSSKPQKHAIEKTLNIDELESVHNTFLTNILSHKLFATNTSEISVGDYSGQPYPTSLVLLLNSVYEFVKVYCNLNDIGYEIFIKMNLNDHEASNGLLGKFNTNLKEIVSQYKNFKDRLYIFRADLKNDGDEELFLLSKSLR
Turning to B7, the binding result (with Spc97-3HA; in assay [1]) was “binds” throughout.

B8: Spc97 with five copies of the FLAG epitope (protein, UniProt P38863 1-823)
chain: T1 sequence (looked up)
For the molecule B8, the binding result in assay [2] is listed as “binds”.

The values above are taken from paper PMC3088709, “Phosphorylation of the Yeast γ-Tubulin Tub4 Regulates Microtubule Function” (PLoS ONE, 2011).
